Data: patent US5883102A, “Pharmaceutically active compounds” (Astra Pharmaceuticals Limited, priority 1995, dated 1999)
Counter-ions that a name gives are not always drawn. Some entries share one result that the patent states for a list of compounds.

What follows are compounds tested against T1, human form of induced nitric oxide synthase (Homo sapiens, UniProt P35228) (assay: activity against the human form of induced nitric oxide synthase, lysate of induced human colon adenocarcinoma cell line DLD1). Conditions: IL-1β and IFN-γ induced, preincubated 1 hour at 37° C., then 1 hour at 37° C., read-out: IC50 (concentration of drug substance which gives 50% enzyme inhibition in the assay).
T1 construct: Nitric oxide synthase is produced by cells in response to interferon; endogenous in cells; host or cells: DLD1 human colon adenocarcinoma cell line (European Collection of Animal Cell Culture, cell line number 90102540), induced with IL-1beta and IFN-gamma; crude lysate
Assay type: biochemical

Row | SMILES | IC50 [µM]
1 | NC1=NC2(CCN(C(=O)OCCCCc3ccccc3)CC2)Nc2cccc(F)c21 [Example 216, 4-Phenylbutyl 4'-amino-5'-fluorospiro[piperidine-4,2'(1'H)-quinazoline]-1-carboxylate hydrochloride] | < 25
2 | C#CC1N=C(N)c2ccccc2N1 (stereo not shown) [Example 253, 2-Ethynyl-1,2-dihydro-4-quinazolinamine hydrochloride] | < 25
3 | CCOC(=O)n1cccc1C1N=C(N)c2ccccc2N1 (stereo not shown) [Example 23, Ethyl 2-(4-amino-1,2-dihydroquinazolin-2-yl)-1H-pyrrole-1-carboxylate hydrochloride] | < 25
4 | NC1=NC2(CCN(C(=O)c3cccs3)CC2)Nc2ccccc21 [Example 65, 1-(2-Thienylcarbonyl)spiro[piperidine-4,2'(1'H)-quinazoline]-4'-amine hydrochloride] | < 25
5 | NC1=NC2(CCN(C(=O)c3ccc(F)cc3)CC2)Nc2ccccc21 [Example 81, 1-(4-Fluorobenzoyl)spiro[piperidine-4,2'(1'H)-quinazoline]-4'-amine hydrochloride] | < 25
6 | Cc1cccc(C(=O)N2CCC3(CC2)N=C(N)c2ccccc2N3)c1 [Example 64, 1-(3-Methylbenzoyl)spiro[piperidine-4,2'(1'H)-quinazoline]-4'-amine hydrochloride] | < 25
7 | NC1=NC2(CCN(C(=O)c3ccc(-c4csnn4)cc3)CC2)Nc2ccccc21 [Example 76, 1-(4-(1,2,3-Thiadiazol-4-yl)benzoyl)spiro[piperidine-4,2'(1'H)-quinazoline]-4'-amine hydrochloride] | < 25
8 | NC1=NC2(CCN(C(=O)OCCc3ccccc3)CC2)Nc2cccc(F)c21 [Example 214, 2-Phenylethyl 4'-amino-5'-fluorospiro[piperidine-4,2'(1'H)-quinazoline]-1-carboxylate hydrochloride] | < 25
9 | NC1=NC2(CCN(C(=O)n3ccnc3)CC2)Nc2cccc(F)c21 [Example 239, 4'-Amino-5'-fluoro-1-(1 H-imidazol-1-ylcarbonyl)spiro[piperidine-4,2'(1'H) -quinazoline]hydrochloride] | < 25
10 | CC(=O)N1CCC2(CC1)N=C(N)c1ccccc1N2 [Example 174] | < 25
11 | C#Cc1ccc(C(=O)N2CCC3(CC2)N=C(N)c2c(F)cccc2N3)cc1 [Example 111, 1-(4-Ethynylbenzoyl)-5'-fluorospiro[piperidine-4,2'(1'H)-quinazoline]-4'-amine hydrochloride] | < 25
12 | CSCCCOC(=O)N1CCC2(CC1)N=C(N)c1c(F)cccc1N2 [Example 213, 3-(Methylthio)lpropyl 4'-amino-5'-fluorospiro[piperidine-4,2'(1'H)-quinazoline]-1-carboxylate hydrochloride] | < 25
13 | NC1=NC2(CCN(C(=O)OCCCCCl)CC2)Nc2cccc(F)c21 [Example 208, 4-Chlorobutyl 4'-amino-5'-fluorospiro[piperidine-4,2'(1'H)-quinazoline]-1-carboxylate hydrochloride] | < 25
14 | CCOC(=O)N1CC2(C1)N=C(N)c1c(F)cccc1N2 [Example 248, Ethyl 4'-Amino-5'-fluorospiro[azetidine-3,2'(1'H)-quinazoline]-1-carboxylate] | < 25
15 | NC1=NC2(CCN(C(=O)c3ccc(S(N)(=O)=O)cc3)CC2)Nc2cccc(F)c21 [Example 112, 5'-Fluoro-1-((4-aminosulphonyl)benzoyl)spiro[peridine-4,2'(1'H)-quinazoline]-4'-amine hydrochloride] | < 25
16 | NC1=NC(c2ccc(O)cc2)Nc2cccc(F)c21 (stereo not shown) [Example 33, 5-Fluoro-1,2-dihydro-2-(4-hydroxyphenyl)-4-quinazolinamine hydrochloride] | < 25
17 | NC1=NC2(CCN(C(=O)OCCc3cccnc3)CC2)Nc2cccc(F)c21 [Example 218, 2-(3-Pyridyl)ethyl 4'-amino-5'-fluorospiro[piperidine-4,2'(1'H)-quinazoline]-1-carboxylate hydrochloride] | < 25
18 | NC1=NC2(CCN(C(=O)OC3CCCC3)CC2)Nc2cccc(F)c21 [Example 192, Cyclopentvl 4'-amino-5'-fluorospiro[piperidine-4,2'-[1'H]-quinazoline]-1-carboxylate hydrochloride] | < 25
19 | NC1=NC2(CN(C(=O)c3cccs3)C2)Nc2cccc(F)c21 [Example 251, 5'-fluoro-1-(2-thienylcarbonyl)spiro[azetidine-3,2'(1'H)-quinazoline]4'-amine] | < 25
20 | C#CCOC(=O)N1CCC2(CC1)N=C(N)c1c(F)cccc1N2 [Example 201, Prop-2-yn-1-yl 4'-amino-5'-fluorospiro[piperidine-4,2'(1'H)-quinazoline]-1-carboxylate hydrochloride] | < 25

Row | SMILES | IC50 [µM]
21 | NC1=NC2(CCN(C(=O)c3cncs3)CC2)Nc2cccc(F)c21 [Example 137, 5'-Fluoro-1-(5-thiazolylcarbonyl)spiro[piperidine-4,2'(1'H)-quinazoline]-4'-amine hydrochloride] | < 25
22 | CN1c2cccc(F)c2C(N)=NC12CCN(C(=O)c1ccc(C#N)cc1)CC2 [Example 160, 5'-Fluoro-1'-methyl-1-(4-cyanobenzoyl)spiro[piperidine-4,2'(1 'H)-quinazoline]-4'-amine hydrochloride] | < 25
23 | N#Cc1ccc(C(=O)N2CCC3(CC2)N=C(N)c2c(F)cccc2N3)cn1 [Example 144, 1-(6-Cyano-3-pyridylcarbonyl)-5'-fluorospiro[piperidine-4,2'(1'H)-quinazoline]-4'-amine hydrochloride] | < 25
24 | CSc1ccc(C2N=C(N)c3c(F)cccc3N2)cc1 (stereo not shown) [Example 39, 5-Fluoro-1,2-dihydro-2-(4-(methylthio)phenyl)-4-quinazolinamine hydrochloride] | < 25
25 | NC1=NC2(CCN(C(=O)OCCOc3ccccc3)CC2)Nc2cccc(F)c21 [Example 195, 2-Phenoxyethyl 4'-amino-5'-fluorospiro[piperidine-4,2'-[1'H]-quinazoline]-1-carboxylate hydrochloride] | < 25
26 | NC1=NC2(CCN(C(=O)c3ccc(Br)cc3)CC2)Nc2ccccc21 [Example 77, 1-(4-Bromobenzoyl)spiro[piperidine-4,2'(1'H)-quinazoline]-4'-amine hydrochloride] | < 25
27 | Cc1cc(C(=O)N2CCC3(CC2)N=C(N)c2c(F)cccc2N3)ccc1C#N [Example 121, 1-(4-Cyano-3-methylbenzoyl)-5'-fluorospiro[piperidine-4,2'(1'H)-quinazoline]-4'-amine hydrochloride] | < 25
28 | CCN(CCOC(=O)N1CCC2(CC1)N=C(N)c1c(F)cccc1N2)c1ccccc1 [Example 223, 2-(K-Ethyl-N-phenlamino)ethyl 4'-amino-5'-fluorospiro[piperidine-4,2'(1'H)-quinazoline]-1-carboxylate hydrochloride] | < 25
29 | NC1=NC(c2ccc([N+](=O)[O-])cc2)Nc2ccccc21 (stereo not shown) [Example 18, 1,2-Dihydro-2-(4-nitrophenyl)-4-quinazolinamine hydrochloride] | < 25
30 | NC1=NC2(CCN(C(=O)c3ccc(-c4nccs4)cc3)CC2)Nc2cccc(F)c21 [Example 118, 5'-Fluoro-1-(4-(2-thiazolyl)benzoyl)spiro[piperidine-4,2'(1'H)-quinazoline]-4'-amine hydrochloride] | < 25
31 | NC1=NC2(CCN(C(=O)c3ccc4ccccc4c3)CC2)Nc2cccc(F)c21 [Example 147, 5'-Fluoro-1-(2-naphthylcarbonyl)spiro[piperidine-4,2'(1'H)-quinazoline]-4'-amine hydrochloride] | < 25
32 | NC1=NC2(CCN(C(=O)c3ccc(Cl)cc3)CC2)Nc2cccc(F)c21 [Example 104, 1-(4-Chlorobenzoyl)-5'-fluorospiro[piperidine-4,2'(1'H)-quinazoline]-4'-amine hydrochloride] | < 25
33 | NC1=NC2(CCN(C(=O)c3cccs3)CC2)Nc2cccc(F)c21 [Example 124, 5'-Fluoro-1-(2-thienylcarbonyl)spiro[piperidine-4,2'(1'H)-quinazoline]-4'-amine hydrochloride] | < 25
34 | NC1=NC2(CCN(C(=O)c3cnsc3)CC2)Nc2cccc(F)c21 [Example 139, 5'-Fluoro-1-(4-isothiazolylcarbonyl)spiro[piperidine-4,2'(1'H)-quinazoline]-4'-amine hydrochloride] | < 25
35 | NC1=NC2(CCN(C(=O)c3csnn3)CC2)Nc2cccc(F)c21 [Example 140, 5'-Fluoro-1-(1,2,3-thiadiazol-4-ylcarbonyl)spiro[piperidine-4,2'(1'H)-quinazoline]-4'-amine hydrochloride] | < 25
36 | NC1=NC2(CCN(C(=O)OCCCCl)CC2)Nc2cccc(F)c21 [Example 207, 3 -Chloropropyl 4'-amino-5'-fluorospiro[piperidine-4,2'(1'H)-quinazoline-]-1-carboxylate hydrochloride] | < 25
37 | CCOC(=S)N1CCC2(CC1)N=C(N)c1c(F)cccc1N2 [Example 153, O-Ethyl 4'-amino-5'-fluorospiro[piperidine-4,2'-[1'H]-quinazoline]-1-carbothioate hydrochloride] | < 25
38 | CCOC(=O)N1CCC2(CC1)N=C(N)c1c(F)cc(F)cc1N2 [Example 184, Ethyl 4'-amino-5'.7'-difluorospiro[piperidine-4,2'(1'H)-quinazoline]-1-carboxylate hydrochloride] | < 25
39 | CCCCc1ccc(C(=O)N2CCC3(CC2)N=C(N)c2c(F)cccc2N3)cc1 [Example 110, 1-(4-Butylbenzoyl)-5'-fluorospiro[piperidine-4,2'(1'H)-quinazoline]-4'-amine hydrochloride] | < 25
40 | NC1=NC2(CCN(C(=O)OCCCCCCCl)CC2)Nc2cccc(F)c21 [Example 210, 6-Chlorohexyl 4'-amino-5'-fluorospiro[piperidine-4,2'(1'H)-quinazoline]-1-carboxylate hydrochloride] | < 25
